Structures can show the parent of a compound that is named as a salt. ± gives the standard deviation of the averaged measurements. The list shows a part of the results. Most values lie within the scatter of the assay; repeated measurements hardly agree.
Tested on: A549
Test: surface PD-L1 immunofluorescence intensity relative to IFN-gamma-only control (ratio); higher = more PD-L1 expression
Conditions: 10 µM; exposure time 24 h; IFN-gamma 100 ng/mL

Compound	surface PD-L1 immunofluorescence intensity
CC(N)CCCC(C)(C)O (stereo not given) [Heptaminol hydrochloride]	0.92
CCCCC[C@H](O)/C=C/[C@@H]1[C@H]2C/C(=C/CCCC(=O)O)C[C@H]2C[C@H]1O [Carbacyclin]	0.977
CN1CCCN=C1/C=C/c1cccc(O)c1 [Oxantel pamoate]	0.925
Cn1cc(/C=C2\C(=O)Nc3cccnc32)c2ccccc21	1.06
Cc1ccc(NC(=O)C2(c3ccc4c(c3)OC(F)(F)O4)CC2)nc1-c1cccc(C(=O)O)c1	1.08
Cc1c(O)c(=O)n(-c2ccccc2)n1C [Antipyrine, 4-hydroxy]	0.817
O=S(=O)(O)Oc1ccc(C(c2ccc(OS(=O)(=O)O)cc2)c2ccccn2)cc1 [Sodium Picosulfate]	0.981
CC=CC1=C(C(=O)O)N2C(=O)[C@@H](NC(=O)[C@H](N)c3ccc(O)cc3)[C@H]2SC1 [Cefprozil hydrate (Cefzil)]	1.05
COc1cc2c(NC3CCN(C)CC3)nc(N3CCCN(C)CC3)nc2cc1OCCCN(C)C	1.02
NC(=O)CC[C@H](N)C(=O)O [L-Glutamine]	0.934
Cc1cc2c(s1)Nc1ccccc1N=C2N1CCN(C)CC1 [Olanzapine]	0.893
Cc1cc(C(=O)O)sc1C(N)C(=O)O (stereo not given)	1.05
CN1C(=O)C(Cc2c[nH]c3ccccc23)NC1=S (stereo not given) [Necrostatin-1]	0.888
COC(=O)C(Cc1ccc(OCCn2c(=O)sc3cc(C(=O)c4ccccc4)ccc32)cc1)C(=O)OC	1.02
CCN(CC)CCOC(=O)c1ccc(N)cc1 [Procaine hydrochloride]	0.815
CC1(c2ccccc2)OC(C(=O)O)=CC1=O (stereo not given) [Acifran]	1.02
Clc1ccc(C(Cn2ccnc2)OCc2ccc(Sc3ccccc3)cc2)c(Cl)c1 (stereo not given) [Fenticonazole nitrate]	1.27
CC[C@H](C)C(=O)O[C@H]1C[C@@H](C)C=C2C=C[C@H](C)[C@H](CC[C@@H]3C[C@@H](O)CC(=O)O3)[C@H]21 [Lovastatin]	1.01 ± 0.058
CC[C@H](C)C(=O)O[C@H]1C[C@@H](C)C=C2C=C[C@H](C)[C@H](CC[C@@H]3C[C@@H](O)CC(=O)O3)[C@H]21 [Lovastatin (Mevacor)]	1.09
Cc1c(C)c2c(c(C)c1O)CCC(C)(C(=O)O)O2 (stereo not given) [Trolox]	0.939 ± 0.061
O=c1[nH]c2cc(C(F)(F)F)ccc2n1-c1cc(C(F)(F)F)ccc1O	1.03
COc1cc(C2Oc3cc([C@H]4Oc5cc(O)cc(O)c5C(=O)[C@@H]4O)ccc3OC2CO)ccc1O (stereo not given in full) [Silibinin (Silybin)]	1.05
O=c1cc(-c2ccccc2)oc2cc(O)c(O)c(O)c12 [Baicalein]	0.953 ± 0.053
CN(C)CCn1nnnc1SCC1=C(C(=O)O)N2C(=O)[C@@H](NC(=O)Cc3csc(N)n3)[C@H]2SC1 [Cefotiam hydrochloride]	0.961
CC(=O)N[C@@H](CS)C(=O)O [Acetylcysteine]	0.994

As a working copy, part of the list above:
Compound	surface PD-L1 immunofluorescence intensity
CC1(c2ccccc2)OC(C(=O)O)=CC1=O (stereo not given) [Acifran]	1.02
Clc1ccc(C(Cn2ccnc2)OCc2ccc(Sc3ccccc3)cc2)c(Cl)c1 (stereo not given) [Fenticonazole nitrate]	1.27
CC[C@H](C)C(=O)O[C@H]1C[C@@H](C)C=C2C=C[C@H](C)[C@H](CC[C@@H]3C[C@@H](O)CC(=O)O3)[C@H]21 [Lovastatin]	1.01 ± 0.058
CC[C@H](C)C(=O)O[C@H]1C[C@@H](C)C=C2C=C[C@H](C)[C@H](CC[C@@H]3C[C@@H](O)CC(=O)O3)[C@H]21 [Lovastatin (Mevacor)]	1.09

Continued.

Compound	surface PD-L1 immunofluorescence intensity
CC(=O)N[C@@H](CS)C(=O)O [N-Acetyl-Cysteine]	0.968
N[C@@H](Cc1cc(I)c(Oc2ccc(O)cc2)c(I)c1)C(=O)O [3,5-Diiodo-L-thyronine]	0.993
C[C@]1(c2nc3c(C(N)=O)cccc3[nH]2)CCCN1 [ABT-888 (Veliparib)]	1.1
O=C(O)Cc1cccc(OCCCN(Cc2cccc(C(F)(F)F)c2Cl)CC(c2ccccc2)c2ccccc2)c1 [GW 3965 hydrochloride]	1.01
CC(=O)O[C@H]1C[C@@]2(C)[C@@H](C[C@@H](O)[C@H]3[C@@]4(C)CC[C@@H](O)[C@@H](C)[C@@H]4CC[C@@]32C)/C1=C(\CCC=C(C)C)C(=O)O [Fusidic acid sodium salt]	0.956
O=C1CCN(c2ccccc2)N1 [Phenidone]	1.01
C[C@H]1NC(=O)NC1=O [Methylhydantoin-5-(D)]	1.11
Cc1ccnc(NS(=O)(=O)c2ccc(N)cc2)n1 [Sulfamerazine]	1.01
CCC[S+]([O-])c1ccc2[nH]c(NC(=O)OC)nc2c1 (stereo not given) [Albendazole Oxide (Ricobendazole)]	1.05
N=C(N)NCc1cccc(I)c1 [Iobenguane sulfate]	1.06
NCCCC(O)(P(=O)(O)O)P(=O)(O)O [Alendronate (Fosamax)]	0.992
NCCCC(O)(P(=O)(O)O)P(=O)(O)O [Alendronate sodium]	1.03
NCCCC(O)(P(=O)(O)O)P(=O)(O)O [Alendronate]	1.05
Nc1ccc(S(=O)(=O)Nc2cnc3ccccc3n2)cc1 [Sulfaquinoxaline sodium salt]	0.98
CNC[C@H](O)[C@@H](O)[C@H](O)[C@H](O)CO [Meglumine]	1.12
COC(=O)N[C@H](C(=O)N[C@@H](Cc1ccccc1)[C@@H](O)CN(Cc1ccc(-c2ccccn2)cc1)NC(=O)[C@@H](NC(=O)OC)C(C)(C)C)C(C)(C)C [Atazanavir sulfate]	0.984
CCCCNc1cc(C(=O)O)cc(S(N)(=O)=O)c1Oc1ccccc1 [Bumetanide]	0.905
C[C@H](Cn1cnc2c(N)ncnc21)OCP(=O)(O)O [Tenofovir (Viread)]	0.951
CNC(=O)c1c(I)c(C(=O)NCC(=O)Nc2c(I)c(C(=O)O)c(I)c(C(=O)NCCO)c2I)c(I)c(N(C)C(C)=O)c1I [Ioxaglic acid]	1.06
CC(=O)Oc1ccccc1C(=O)Oc1ccccc1C(=O)O [Acetylsalicylsalicylic acid]	0.901
CC(C)n1c(/C=C/C(O)CC(O)CC(=O)O)c(-c2ccc(F)cc2)c2ccccc21 (stereo not given) [Fluvastatin sodium salt]	1.13
CC(C)n1c(/C=C/C(O)CC(O)CC(=O)O)c(-c2ccc(F)cc2)c2ccccc21 (stereo not given) [Fluvastatin sodium (Lescol)]	1.16
O=C(NCCCN1CCCCCC1)C(c1ccccc1)C1CCCCC1 (stereo not given)	1.03
O=c1ccn([C@@H]2O[C@H](CO)[C@@H](O)[C@H]2O)c(=O)[nH]1 [Uridine]	1.18
COc1ccc2[nH]c(-c3ccccc3)c(CCNC(C)=O)c2c1 [2-Phenylmelatonin]	0.99

From the supplement of paper PMC8732350
